From publication PMC12674568
Results are given in words; binding and its absence hold for the method and conditions named. In cells and extracts the contact can be indirect. Some binding calls cover weakened binding; strength is not graded here.

Sequences of proteins named here, by UniProt entry; tags and fusion partners are left off.
UniProt F5HCV3: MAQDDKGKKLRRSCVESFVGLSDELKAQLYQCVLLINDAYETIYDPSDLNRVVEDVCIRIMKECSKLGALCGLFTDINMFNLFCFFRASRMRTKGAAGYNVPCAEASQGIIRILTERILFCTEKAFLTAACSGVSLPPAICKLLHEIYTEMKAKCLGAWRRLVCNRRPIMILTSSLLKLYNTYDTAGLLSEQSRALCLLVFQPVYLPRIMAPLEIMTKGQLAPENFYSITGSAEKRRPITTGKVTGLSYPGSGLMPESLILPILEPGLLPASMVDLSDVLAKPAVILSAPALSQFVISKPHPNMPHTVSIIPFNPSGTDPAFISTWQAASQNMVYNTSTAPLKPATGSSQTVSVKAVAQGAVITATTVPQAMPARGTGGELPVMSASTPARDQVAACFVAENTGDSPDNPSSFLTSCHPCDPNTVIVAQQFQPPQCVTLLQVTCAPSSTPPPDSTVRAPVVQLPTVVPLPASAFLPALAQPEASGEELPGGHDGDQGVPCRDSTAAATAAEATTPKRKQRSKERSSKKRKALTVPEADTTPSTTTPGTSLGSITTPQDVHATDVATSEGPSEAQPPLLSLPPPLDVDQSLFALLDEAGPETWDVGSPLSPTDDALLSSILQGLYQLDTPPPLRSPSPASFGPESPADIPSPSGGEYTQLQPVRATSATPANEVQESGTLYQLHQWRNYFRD
UniProt P30153: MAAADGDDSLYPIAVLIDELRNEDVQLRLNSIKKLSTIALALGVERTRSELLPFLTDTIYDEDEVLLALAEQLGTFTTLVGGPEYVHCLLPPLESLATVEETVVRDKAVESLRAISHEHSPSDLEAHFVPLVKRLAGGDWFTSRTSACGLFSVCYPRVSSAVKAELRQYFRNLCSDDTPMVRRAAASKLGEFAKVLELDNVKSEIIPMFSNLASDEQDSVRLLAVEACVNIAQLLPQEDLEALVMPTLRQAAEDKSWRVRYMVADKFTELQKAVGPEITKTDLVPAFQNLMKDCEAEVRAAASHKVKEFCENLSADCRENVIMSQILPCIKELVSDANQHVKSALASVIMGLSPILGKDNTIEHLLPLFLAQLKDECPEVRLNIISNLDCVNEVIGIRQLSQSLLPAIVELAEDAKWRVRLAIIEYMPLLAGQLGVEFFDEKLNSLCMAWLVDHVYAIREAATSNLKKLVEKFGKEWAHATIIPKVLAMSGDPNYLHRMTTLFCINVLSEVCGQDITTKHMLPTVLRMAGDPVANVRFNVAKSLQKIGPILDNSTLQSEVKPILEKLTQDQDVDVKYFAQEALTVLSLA

Key:
Assay in all cases: co-IP
[1] = biological target: KSHV replication and transcription activator (RTA), induced by doxycycline in iSLK cells (KSHV (human herpesvirus 8)) (UniProt F5HCV3)
[2] = biological target: PPP2R1A, scaffold A subunit of phosphatase PP2A, Flag-tagged (human (cDNA from iSLK.RGB cells)) (UniProt P30153)
[3] = biological target: KSHV replication and transcription activator (RTA), Flag-tagged (KSHV (human herpesvirus 8)) (UniProt F5HCV3)

## endogenous PPP2R1A, scaffold A subunit of phosphatase PP2A (from UniProt P30153 1-589)
[1]
  binding: binds

## KSHV replication and transcription activator (RTA), HA-tagged (from UniProt F5HCV3 1-691)
[2]
  binding: binds

## PPP2R1A, scaffold A subunit of phosphatase PP2A, HA-tagged (from UniProt P30153 1-589)
[3]
  binding: binds
